# Some of the results follow.
# Biological target: T1, OsSMF1 (Oryza sativa, UniProt Q6ZLB0 1-436)
# T1 sequence: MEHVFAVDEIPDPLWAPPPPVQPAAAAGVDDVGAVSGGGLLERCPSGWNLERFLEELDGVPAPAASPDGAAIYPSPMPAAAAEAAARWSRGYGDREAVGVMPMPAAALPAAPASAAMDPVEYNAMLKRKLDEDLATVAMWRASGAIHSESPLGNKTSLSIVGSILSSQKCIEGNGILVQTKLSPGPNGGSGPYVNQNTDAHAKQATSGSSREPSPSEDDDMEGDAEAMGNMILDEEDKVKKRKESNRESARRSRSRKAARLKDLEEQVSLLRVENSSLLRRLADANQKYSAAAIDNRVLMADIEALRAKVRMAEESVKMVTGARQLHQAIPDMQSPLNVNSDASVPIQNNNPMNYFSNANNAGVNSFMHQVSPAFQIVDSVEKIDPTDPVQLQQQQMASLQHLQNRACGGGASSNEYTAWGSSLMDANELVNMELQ
# Assay: protein-binding microarray (RPBM); PBS, 2% BSA, 51.3 ng/ul salmon testes DNA, 50 uM zinc acetate, 200 nM TF, 25 C, 1 h; high values mean tight binding
# Conditions: protein: recombinant; tags: N-terminal polyhistidine and DsRed monomer fusion (pET32a); chain copies: 2; label: CyDye5-dUTP incorporated in the synthesized complementary strand; 3' TTTTT single-stranded linker to array surface; dsDNA, one strand shown
# Outline: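 An Axon 4000B scanner gave the binding signal as per-feature fluorescence intensity in arbitrary units. This followed washing of a custom Agilent array that had been incubated for 1 h at 25 °C with 200 nM protein in PBS, 2% BSA, salmon testes DNA and 50 µM zinc acetate. The proteins were transcription factors fused at the N-terminus to polyhistidine and DsRed, expressed in E. coli BL21-CodonPlus and purified on Ni–NTA.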
row,Sequence,binding signal
1,GATCAATGGGCCAACGTTGCTGGACTAAGCAAGCCGAGGCCGGAGTCACCTAGTGCAG,27100 fluorescence intensity (a.u.)
2,GCGATCTAGTCCGCGGCCACGTCGGGCCAAACGGGCGGCCCGGAGTCACCTAGTGCAG,6560 fluorescence intensity (a.u.)
3,CTTCTCGCCGGAGTCCACGTGTCGGCCTCGCCGGCACCGGCGGAGTCACCTAGTGCAG,9920 fluorescence intensity (a.u.)
4,TAGTTTTAGTTTTATAGTTATCTTTTGCATCGACTTTTAACGGAGTCACCTAGTGCAG,4130 fluorescence intensity (a.u.)
5,GCCATTGATGACAAAGACAACCTGGAAGATTACTGTTGCACGGAGTCACCTAGTGCAG,64300 fluorescence intensity (a.u.)
6,GGCCGGCGCCGGCCCACGTGCCACTAATGGACTCGTGCCGCGGAGTCACCTAGTGCAG,4470 fluorescence intensity (a.u.)
7,AGATTTGCGTGGTGTGACATTCCTGACAAACCAGGCATTACGGAGTCACCTAGTGCAG,3250 fluorescence intensity (a.u.)
8,TTTCTTTTGCTTCTCTTGAAGTACGTCACGTTTCCACTTGCGGAGTCACCTAGTGCAG,5460 fluorescence intensity (a.u.)
9,AGAACAGCAGCCACGGCAAGCCCTTCGATGAACAAACACCCGGAGTCACCTAGTGCAG,26000 fluorescence intensity (a.u.)
10,TATTATACGTATCAATTCACACGTTATCTTTATTCAGGCCCGGAGTCACCTAGTGCAG,4190 fluorescence intensity (a.u.)
11,AACCCAGCCCCTAGATTGTGTCATCAGTCATCACCCACATCGGAGTCACCTAGTGCAG,6470 fluorescence intensity (a.u.)
12,ATTTATTATTTGAACTGATGGCTGTCAGGTGCTTCTCTTTCGGAGTCACCTAGTGCAG,3590 fluorescence intensity (a.u.)
13,CTCACATAAACAACGAATCTAGATGACTCAGATTCTTATCCGGAGTCACCTAGTGCAG,4730 fluorescence intensity (a.u.)
14,CCCTCCCTCGCTTGACTTCTCTCTCCGCGTCACTTCTCTTCGGAGTCACCTAGTGCAG,5500 fluorescence intensity (a.u.)
15,TGATGAACCCCTGCCACTGCTAGTGGATTCTTGCCGTTTCCGGAGTCACCTAGTGCAG,18100 fluorescence intensity (a.u.)
16,GTGTGGTGTTACGTGCGTAGTGGTGTGTATATATATCTGTCGGAGTCACCTAGTGCAG,4740 fluorescence intensity (a.u.)
17,GCGGCGACAGGTGGCAGGCCGATGGGCGGGCTAGGGTTTGCGGAGTCACCTAGTGCAG,3510 fluorescence intensity (a.u.)
18,ATACAGGTGGCAATATGGTGAGTTGGCAAACAACCCTCTTCGGAGTCACCTAGTGCAG,7460 fluorescence intensity (a.u.)
19,ACAAATCGGTCATTCTTGTCCACCACGCGTCAGTTTATCACGGAGTCACCTAGTGCAG,5240 fluorescence intensity (a.u.)
20,GCGGGAGATGCACGCCGCCAGCATCATCCCGGACTGCATTCGGAGTCACCTAGTGCAG,4020 fluorescence intensity (a.u.)
21,CGATTCCCGATGCTCGCGAAGTTTCTTTTCTCCGTTTCTCCGGAGTCACCTAGTGCAG,22100 fluorescence intensity (a.u.)

row,Sequence,binding signal
1,GTTTATATATATGCAATCTGCGCGTGCACCGGCATAGGATCGGAGTCACCTAGTGCAG,3880 fluorescence intensity (a.u.)
2,CATCTTCCCCATCTACACGTGTGACCCAACATTCAGATTCCGGAGTCACCTAGTGCAG,4970 fluorescence intensity (a.u.)
3,CGCCATCACCGGTCCATCGCCGCCCGCGTCAGCCCCGTCGCGGAGTCACCTAGTGCAG,7460 fluorescence intensity (a.u.)
4,AAAATAGTGACGCATATTATCCGGTGTGTGCATGCAAGCTCGGAGTCACCTAGTGCAG,7810 fluorescence intensity (a.u.)
5,ATTTAATAACTTCTATGGACAATATGTGCCCTGAAACTACCGGAGTCACCTAGTGCAG,48800 fluorescence intensity (a.u.)
6,ACGCGTTCTTCCTTTCCGCGTTCGTGTGCAGCCCCACAGTCGGAGTCACCTAGTGCAG,3470 fluorescence intensity (a.u.)
7,TGTGGAAGATTATGATTAATTGAAAAGATAATGTACGTGCCGGAGTCACCTAGTGCAG,16700 fluorescence intensity (a.u.)
8,TCAGTGAGGATATTAATTGAACTCCCATTGCCAACACCCCCGGAGTCACCTAGTGCAG,3520 fluorescence intensity (a.u.)
9,TACACGAAACTCCAAACAGAAAGGTAACACCTGTCACCCTCGGAGTCACCTAGTGCAG,4720 fluorescence intensity (a.u.)
10,CTTCATCGGGAACATTTTGAGTGGGCATAAGGTATTTGAGCGGAGTCACCTAGTGCAG,32900 fluorescence intensity (a.u.)
11,ACTCCGTCTTCCTGGTAACTCACACTCACTTATCTGTATCCGGAGTCACCTAGTGCAG,3730 fluorescence intensity (a.u.)
12,CACTCGCGCCGGCCCACACCCCTCCTCCCGCCTGGCGGCGCGGAGTCACCTAGTGCAG,3380 fluorescence intensity (a.u.)
13,CCTCACATATTACAACGAGGTCCACCGCAGCTATTCCACACGGAGTCACCTAGTGCAG,3530 fluorescence intensity (a.u.)
14,TCTGCCCATGGTCTGCCCGGCCGACTCCGTGTCAGTTTCGCGGAGTCACCTAGTGCAG,3430 fluorescence intensity (a.u.)
15,ACCTGACGTCAGACGACGATTAGCCACGTGGCACACAGTGCGGAGTCACCTAGTGCAG,31200 fluorescence intensity (a.u.)
16,GATACTCCTTAGCAATCATATACTCATATGACATATCCAACGGAGTCACCTAGTGCAG,3180 fluorescence intensity (a.u.)
17,GCCTTGTTTTACTATAAGTTAAGTCATTCCAAGTTTGTAGCGGAGTCACCTAGTGCAG,17300 fluorescence intensity (a.u.)
18,GCCGCCGCTGACCCGCAGGCCACGCTGCTCAACCTGGGGTCGGAGTCACCTAGTGCAG,4090 fluorescence intensity (a.u.)
19,ATGTAGGATGTCATGTTGTAGTTCTATATATGCGTGGGGTCGGAGTCACCTAGTGCAG,3270 fluorescence intensity (a.u.)
20,CAGTAGTACATTGCTACACACGCGAGCAGACGGCTAGGCCCGGAGTCACCTAGTGCAG,3920 fluorescence intensity (a.u.)
21,GAAAAGAGAACCCTATCTGCAATCGCCTCTTTGCCTCCCCCGGAGTCACCTAGTGCAG,16600 fluorescence intensity (a.u.)

# 2 successive entries from above, quoted:
row,Sequence,binding signal
6,ACGCGTTCTTCCTTTCCGCGTTCGTGTGCAGCCCCACAGTCGGAGTCACCTAGTGCAG,3470 fluorescence intensity (a.u.)
7,TGTGGAAGATTATGATTAATTGAAAAGATAATGTACGTGCCGGAGTCACCTAGTGCAG,16700 fluorescence intensity (a.u.)

# — paper PMC7819943, “Rice protein-binding microarrays: a tool to detect cis-acting elements near promoter regions in rice”
